For the assay, the target named is CD98hc (4F2hc; SLC3A2) (human) (UniProt P08195). As to the kind of experiment: cryo-EM structure; LAT1–CD98hc in lipid nanodiscs (POPC:POPG:cholesterol 2:2:1, MSP2N2) complexed with Fab170, gel filtration; SEC buffer 20 mM Tris-HCl pH 9.0, 150 mM NaCl; with JPH203, L-Phe, melphalan, BCH, T3 or no ligand; both purified. Background: SEC sorts molecules by how far they enter the pores of the column.

Protein sequences, listed by entry. Tags and fused reporters are not part of them. Residues count along the entry.
UniProt P08195, residues 102-630: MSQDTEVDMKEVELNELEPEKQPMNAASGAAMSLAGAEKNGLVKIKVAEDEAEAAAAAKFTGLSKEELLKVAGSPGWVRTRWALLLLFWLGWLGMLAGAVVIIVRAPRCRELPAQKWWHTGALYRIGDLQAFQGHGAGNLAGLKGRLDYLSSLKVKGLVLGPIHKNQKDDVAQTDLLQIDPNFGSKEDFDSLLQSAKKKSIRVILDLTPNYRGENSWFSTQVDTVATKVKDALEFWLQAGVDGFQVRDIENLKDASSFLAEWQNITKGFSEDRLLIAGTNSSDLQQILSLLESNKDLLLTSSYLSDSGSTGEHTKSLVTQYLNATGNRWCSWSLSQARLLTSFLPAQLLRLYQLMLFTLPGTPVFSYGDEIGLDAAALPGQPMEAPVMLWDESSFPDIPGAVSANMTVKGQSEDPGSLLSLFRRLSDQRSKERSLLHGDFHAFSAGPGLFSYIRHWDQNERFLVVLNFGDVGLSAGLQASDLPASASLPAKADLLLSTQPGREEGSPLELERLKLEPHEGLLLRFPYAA
UniProt Q01650: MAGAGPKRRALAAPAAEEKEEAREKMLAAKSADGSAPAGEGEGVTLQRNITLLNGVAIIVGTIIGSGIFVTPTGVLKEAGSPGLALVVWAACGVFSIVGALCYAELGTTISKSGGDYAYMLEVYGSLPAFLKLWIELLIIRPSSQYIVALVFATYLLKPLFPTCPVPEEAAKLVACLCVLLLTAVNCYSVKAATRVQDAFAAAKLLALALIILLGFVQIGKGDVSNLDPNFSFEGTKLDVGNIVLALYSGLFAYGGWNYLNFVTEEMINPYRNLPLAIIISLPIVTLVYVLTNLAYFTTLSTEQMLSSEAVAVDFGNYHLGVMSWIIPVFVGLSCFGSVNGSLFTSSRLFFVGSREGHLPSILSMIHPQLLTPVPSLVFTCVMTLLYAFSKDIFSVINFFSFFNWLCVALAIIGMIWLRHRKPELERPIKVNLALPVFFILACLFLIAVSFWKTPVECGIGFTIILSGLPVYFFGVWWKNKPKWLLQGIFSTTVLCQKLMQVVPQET

These are yes or no findings as the source states them, for the method shown. Some results given as binding are weak or reduced against the parent protein; the word gives no strength.

For “L-type amino acid transporter 1 (LAT1; SLC7A5) (from UniProt Q01650 1-507)”, the binding entry was “binds”.

These data come from paper PMC11828871, “Structural basis of anticancer drug recognition and amino acid transport by LAT1” (Nature Communications, 2025).
